Assay results from patent publication US20250296949A1, “HIGH PURITY NON-ANIMAL DERIVED UDCA” (priority 2021, published 2025).
At least one compound was matched to its structure with a doubt left.

Tests used:
[1] = Solid form stability at 40° C. and 75% RH; format: physicochemical; settings: XRPD pattern found after storage at 40° C. and 75% RH
[2] = One-week form stability in solvents; format: physicochemical

CC(C)(C)N.C[C@H](CCC(=O)O)[C@H]1CC[C@H]2[C@@H]3C(=O)C[C@@H]4CC(=O)CC[C@]4(C)[C@H]3CC[C@]12C [tert-Butylamine salt, tert-butylamine salt of 3,7-DKCA]
9-A: Stability at 40° C. and 75% RH [1] | One-week form stability in solvents, 2-MeTHF ([2]; XRPD pattern after one week in 2-MeTHF) | One-week form stability in solvents, ACN:water (9:1 vol.) ([2]; XRPD pattern after one week in ACN:water (9:1 vol.)) | One-week form stability in solvents, EtOAc ([2]; XRPD pattern after one week in EtOAc)
